PubChem BioAssay AID330 (DTP/NCI, 2004)
The list shows only some results of the screen, not a fair sample: it gathers tests that were run many times, whatever their T/C, doses with no T/C, and many T/C values between a quarter and a half above the control. Further doses and runs are listed elsewhere. T/C is the treated group as % of the vehicle group. Some doses have a count of surviving animals in place of a T/C: the source files T/C as zero there, which appears to mark a toxic dose or a test without result, not a measured value. Some survivor counts are full or nearly so, which does not show that the dose was tolerated: the source hardly ever lists a survival T/C far under the control, and the zero likely stands for such cases as well. Counts of survivors are from the toxicity check (mostly the fifth day) where no day follows; animals may have died later. Schedules are NCI's codes, taken here to give the interval after Q, in days (D) or hours (H), and the number of doses after X. Counts like (3×) stand for listed records that agree. Some entries hold several experiments; their values stand side by side, smallest first. For survival time, the PubChem record calls one and a half times the control and up active, and a quarter to a half above the control has no call in these data; cut-offs in other NCI protocols can differ.

Test system: P388 leukemia ip, CD2F1 mice, survival T/C
Experiment: NCI In Vivo Anticancer Drug Screen. Data for tumor model P388 Leukemia (intraperitoneal) in CD2F1 (CDF1) mice
Conditions: T/C endpoint: median survival time, higher T/C = longer survival
[1] = dose: 240.0 mg/kg/injection, schedule: Q01DX005 (ip), vehicle: saline with Tween-80
[2] = dose: 200.0 mg/kg/injection, schedule: Q01DX009 (ip), vehicle: saline with Tween-80
[3] = dose: 200.0 mg/kg/injection, schedule: Q01DX005 (ip), vehicle: Klucel (hydroxypropylcellulose) (HPC)
[4] = dose: 50.0 mg/kg/injection, schedule: Q01DX009 (ip), vehicle: saline
[5] = dose: 100.0 mg/kg/injection, schedule: Q01DX009 (ip), vehicle: saline
[6] = dose: 200.0 mg/kg/injection, schedule: Q01DX009 (ip), vehicle: saline

## COC(=O)NC(=Nc1cccc(C(=O)c2ccc3nc(NC(=O)OC)[nH]c3c2)c1)NC(=O)OC
dose: 60.0 mg/kg/injection, schedule: Q01DX005 (ip), vehicle: saline with Tween-80
  T/C: 128 % of control
[1]
  survivor count: 3 of 6

## Oc1ccc(O)c([P+](c2ccccc2)(c2ccccc2)c2ccccc2)c1
[2]
  T/C: 130 % of control

## O=[N+]([O-])c1ccccc1OCC(O)CCl (stereo unspecified)
[2]
  survivor count: 2 of 6

## Cn1c(Cl)c(/C=N\Nc2ccccc2[N+](=O)[O-])c2ccccc21
dose: 12.5 mg/kg/injection, schedule: Q01DX001 (ip), vehicle: Klucel (hydroxypropylcellulose) (HPC)
  survivor count: 6 of 6
dose: 25.0 mg/kg/injection, schedule: Q01DX001 (ip), vehicle: Klucel (hydroxypropylcellulose) (HPC)
  survivor count: 6 of 6
dose: 50.0 mg/kg/injection, schedule: Q01DX001 (ip), vehicle: Klucel (hydroxypropylcellulose) (HPC)
  survivor count: 6 of 6
dose: 100.0 mg/kg/injection, schedule: Q01DX001 (ip), vehicle: Klucel (hydroxypropylcellulose) (HPC)
  survivor count: 6 of 6

## Clc1ccc2c(NCCCC3CCCN4CCCCC34)ccnc2c1 (stereo unspecified)
[3]
  survivor count: 0 of 6

## CCOC(=O)c1cc2c(ccn2OC)[nH]1
dose: 200.0 mg/kg/injection, schedule: Q04DX003 (ip), vehicle: saline with Tween-80
  T/C: 128 % of control
dose: 400.0 mg/kg/injection, schedule: Q04DX003 (ip), vehicle: saline with Tween-80
  survivor count: 2 of 6

## COc1cccc2c1C(=O)c1c(O)c3c(c(O)c1C2=O)C[C@@](O)(C(=O)CSc1nnc(C)s1)C[C@@H]3OC1CC(N)C(O)C(C)O1 (stereo partly specified)
dose: 1.56 mg/kg/injection, schedule: Q01DX009 (ip), vehicle: water, evaluated on day 30
  T/C: 129 % of control
dose: 1.56 mg/kg/injection, schedule: Q01DX009 (ip), vehicle: water, evaluated on day 45
  T/C: 133 % of control
dose: 3.13 mg/kg/injection, schedule: Q01DX009 (ip), vehicle: water, evaluated on day 30
  T/C: 143 % of control
dose: 3.13 mg/kg/injection, schedule: Q01DX009 (ip), vehicle: water, evaluated on day 45
  T/C: 142 % of control
dose: 6.25 mg/kg/injection, schedule: Q01DX009 (ip), vehicle: water
  T/C: 146 % of control
dose: 25.0 mg/kg/injection, schedule: Q01DX009 (ip), vehicle: water
  survivor count: 6 of 6 (2×)

## CC[N+]1(CC)CCCCC1
[4]
  survivor count: 1 of 6
[5]
  survivor count: 1 of 6
[6]
  survivor count: 0 of 6

## O=NNc1cnc2ccccc2n1
dose: 100.0 mg/kg/injection, schedule: Q01DX009 (ip), vehicle: water
  survivor count: 3 of 6

## O=C(c1ccccc1)N(C(=O)c1ccccc1)c1ccccn1
dose: 50.0 mg/kg/injection, schedule: Q01DX009 (ip), vehicle: saline with Tween-80
  survivor count: 6 of 6

## CC(C)C(C#N)(C(=O)O)C(C)C
[2]
  survivor count: 5 of 6

## C/C(=N\N=C(/N)N1CCCC1)c1ccc2c(c1)Cc1cc(/C(C)=N/N=C(\N)N3CCCC3)ccc1-2
dose: 100.0 mg/kg/injection, schedule: Q04DX002 (ip), vehicle: saline with Tween-80
  survivor count: 0 of 6

## [Cl][Hg][Cl]
dose: 3.75 mg/kg/injection, schedule: Q01DX005 (ip), vehicle: saline
  survivor count: 5 of 6
dose: 7.5 mg/kg/injection, schedule: Q01DX005 (ip), vehicle: saline
  survivor count: 0 of 6
dose: 15.0 mg/kg/injection, schedule: Q01DX005 (ip), vehicle: saline
  survivor count: 0 of 6
dose: 30.0 mg/kg/injection, schedule: Q01DX005 (ip), vehicle: saline
  survivor count: 0 of 6
dose: 60.0 mg/kg/injection, schedule: Q01DX005 (ip), vehicle: saline
  survivor count: 0 of 6
dose: 120.0 mg/kg/injection, schedule: Q01DX005 (ip), vehicle: saline
  survivor count: 0 of 6
dose: 240.0 mg/kg/injection, schedule: Q01DX005 (ip), vehicle: saline
  survivor count: 0 of 6

## CCN(CC)C(=O)C1CCN(Cc2c[nH]c3ccccc23)CC1
[6]
  survivor count: 1 of 6

## Cc1ccc2c(c1)C1(SC(C)C(=O)N1c1ccc(Cl)cc1)C(=O)N2 (stereo unspecified)
dose: 120.0 mg/kg/injection, schedule: Q01DX005 (ip), vehicle: saline with Tween-80
  T/C: 126 % of control
[1]
  T/C: 133 and 141 % of control

## CNC(=O)OCc1c(-c2ccccc2)c(-c2ccccc2)n(C)c1COC(=O)NC
dose: 3.13 mg/kg/injection, schedule: Q01DX009 (ip), vehicle: distilled water + Tween-80
  T/C: 128 % of control
dose: 6.25 mg/kg/injection, schedule: Q01DX009 (ip), vehicle: distilled water + Tween-80, evaluated on day 30
  T/C: 148 % of control
dose: 6.25 mg/kg/injection, schedule: Q01DX009 (ip), vehicle: distilled water + Tween-80, evaluated on day 45
  T/C: 138 % of control
dose: 100.0 mg/kg/injection, schedule: Q01DX009 (ip), vehicle: distilled water + Tween-80
  survivor count: 5 of 6 (2×)
dose: 200.0 mg/kg/injection, schedule: Q01DX009 (ip), vehicle: distilled water + Tween-80
  survivor count: 1 of 6

## Cn1cc/c(=N\N=c2/ccn(C)c3ccccc23)c2ccccc21
dose: 200.0 mg/kg/injection, schedule: Q04DX002 (ip), vehicle: saline
  survivor count: 0 of 6
dose: 400.0 mg/kg/injection, schedule: Q04DX002 (ip), vehicle: saline
  survivor count: 1 of 6

## CC1(C)SC2C(NC(=O)C(N)c3ccc(O)cc3)C(=O)N2C1C(=O)O (stereo unspecified)
[4]
  survivor count: 6 of 6
[5]
  survivor count: 6 of 6
[6]
  survivor count: 6 of 6

## CC1(C)OC(=O)ON(C(c2ccccc2)c2ccccc2)C1=O
[1]
  survivor count: 4 of 6

## O=C(O)CC(=O)C(C(=O)O)C(CCc1ccccc1)C(C(=O)O)C(=O)CC(=O)O (stereo unspecified)
dose: 12.5 mg/kg/injection, schedule: Q01DX009 (ip), vehicle: saline with Tween-80
  survivor count: 6 of 6
dose: 25.0 mg/kg/injection, schedule: Q01DX009 (ip), vehicle: saline with Tween-80
  survivor count: 6 of 6
dose: 100.0 mg/kg/injection, schedule: Q01DX009 (ip), vehicle: saline with Tween-80
  survivor count: 6 of 6

## CC(=O)Oc1ccc2c3c1O[C@H]1[C@@H](OC(C)=O)C=C[C@H]4[C@@H](C2)N(C)CC[C@@]341
dose: 400.0 mg/kg/injection, schedule: Q01DX009 (ip), vehicle: saline
  survivor count: 0 of 6

## O=S(=O)(O)C1=CC(=N/Cl)/C=CC/1=N\Cl
dose: 400.0 mg/kg/injection, schedule: Q01DX005 (ip), vehicle: saline
  survivor count: 3 of 5

## O=[Te]=O
dose: 25.0 mg/kg/injection, schedule: Q01DX005 (ip), vehicle: saline
  survivor count: 6 of 6
dose: 50.0 mg/kg/injection, schedule: Q01DX005 (ip), vehicle: saline
  survivor count: 0 of 6

## Clc1cccc(Cl)c1C(Nc1cnccn1)Nc1cnccn1
dose: 100.0 mg/kg/injection, schedule: Q01DX005 (ip), vehicle: Klucel (hydroxypropylcellulose) (HPC)
  T/C: 143 % of control
[3]
  T/C: 132 % of control
  survivor count: 0 of 6 and 1 of 6

## COSc1ccc(C)cc1
dose: 400.0 mg/kg/injection, schedule: Q04DX003 (ip), vehicle: saline
  survivor count: 2 of 6

## O=S(=O)(OCCCl)c1c(Cl)c(Cl)c(Cl)c(Cl)c1Cl
dose: 200.0 mg/kg/injection, schedule: Q01DX005 (ip), vehicle: saline with Tween-80
  survivor count: 0 of 5

## O=C1C=CC2OC(c3ccccc3)C(O)C2O1 (stereo unspecified)
dose: 45.0 mg/kg/injection, schedule: Q01DX009 (ip), vehicle: DMSO
  survivor count: 1 of 6
dose: 50.0 mg/kg/injection, schedule: Q01DX005 (ip), vehicle: DMSO
  survivor count: 3 of 6
dose: 50.0 mg/kg/injection, schedule: Q01DX005 (ip), vehicle: saline with Tween-80
  survivor count: 6 of 6
dose: 50.0 mg/kg/injection, schedule: Q01DX009 (ip), vehicle: distilled water + Tween-80 + alcohol
  survivor count: 0 of 4
dose: 100.0 mg/kg/injection, schedule: Q01DX005 (ip), vehicle: saline with Tween-80
  survivor count: 0 of 6

## CC(C)C(NSC(=O)C1CCCN1Sc1ccc([N+](=O)[O-])cc1[N+](=O)[O-])C(=O)OCc1ccccc1 (stereo unspecified)
dose: 50.0 mg/kg/injection, schedule: Q01DX005 (ip), vehicle: Klucel (hydroxypropylcellulose) (HPC)
  survivor count: 6 of 6
[3]
  survivor count: 6 of 6

## NNS(=O)(=O)c1ccc(Cl)cc1
dose: 300.0 mg/kg/injection, schedule: Q01DX009 (ip), vehicle: other
  survivor count: 1 of 6

## CC(=O)OC1OC(COS(=O)(=O)c2ccc(C)cc2)C(OC(C)=O)C(OC(C)=O)C1OC(C)=O (stereo unspecified)
dose: 50.0 mg/kg/injection, schedule: Q01DX009 (ip), vehicle: other
  survivor count: 6 of 6
